Common to all, as to assay: two-hybrid; split-ubiquitin yeast two-hybrid; USL1 forms as Cub fusions (MetYCgate), NubG-VPS30 (pPR3-N); yeast strain NMY51; growth on SD-Trp-Leu-His-Ade
In assay [1] the target is USL1ΔCC2-Cub (Arabidopsis thaliana) (UniProt Q8S9J3).
For assay [2], the target named is USL1ΔC-Cub (Arabidopsis thaliana).
For assay [3], the target named is USL1ΔCC1-Cub (Arabidopsis thaliana) (UniProt Q8S9J3).

These are yes or no findings as the source states them, for the method shown. For part of these data: Binding can be weak; no strength is given.

B1: NubG-VPS30 (protein, UniProt Q9M367 1-517)
chain: MRKEEIPDKSRTIPIDPNLPKWVCQNCHHSLTIVGVDSYAGKFFNDPPPSATQGSSIHGANSVLGSTRMDNSFVVLPRHKPPQSQGIPPRPRGASSPQPDATQSGKAMEESFVVVYKSEPVSDSGGSHNLSLEVGQNGPLHSNTSGFNATINVLTRAFDIARTQTQVEQPLCLECMRVLSDKLEKEVEDVTRDVEAYEACVQRLEGETQDVLSEADFLKEKKKIEEEERKLVAAIEETEKQNAEVNHQLKELEFKGNRFNELEDRYWQEFNNFQFQLIAHQEERDAILAKIEVSQAHLELLNKTNVLIDAFPIRNDGEFGTINNFRLGRLPAIKVEWDEINAAWGQACLLLHTMCNYFRPKFQCQVKIQPMGSYPRIVDSNNETYELFGPVNLFWSTRYDKAMTLYLMCLKDFADFANSKDQENNIPPDNCLNLPYKIEKDKVLGYSITQSFNKQESWTKALKYTLCNLKWALYWFVGNTNFQPLSATVSLPSNISAAGSLYAKRGPDSSKPSCKKT
For the molecule B1, the binding entry in assay [1] is reported as “no binding”; in assay [2] it was “binds”; in assay [3] it was “no binding”.
